For at least one compound, name, drawing or mass did not settle the structure.
System: PCSK9/LDLR complex
Assay: PCSK9/LDLR protein complementation assay (PCA) in transfected HEK293 cells
Format: cell-based, human
Description: In one of the embodiments of the invention, the cell-based assay consists of transfected cDNAs encoding full-length PCSK9 and LDL receptor, each sequence linked in-frame to rationally designed fragments of a variant of green fluorescent protein. These two plasmid constructs were co-expressed in human HEK cells plated in 384-well poly-lysine coated plates. After 24-48 hours of incubation, drugs (or vehicle controls) were added to the media, and the existence and localization of PCSK9/LDL receptor complexes was quantified on an Opera automated confocal fluorescence microscopy platform (Perkin Elmer). Images were subjected to automated image analysis, and results quantified and subjected to statistical analysis.
HEK 293T cells were seeded in normal growth media containing DMEM and 10% FBS at 1.5×10^4 in PDL-coated 96-well plates 24 hours prior to transfection. Cells were transfected with 50 ng of each construct DNA per well with Fugene 6, using conditions recommended by the manufacturer. […]
A collection of small molecular weight compounds was screened. […] 47 compounds representing a broad range of known receptor tyrosine and serine-threonine kinase inhibitors were assessed (table 2). […]

## COc1ccnc(C[S+]([O-])c2nc3ccc(OC(F)F)cc3[nH]2)c1OC (stereo not shown) [Pantoprazole]
  effect on formation of PCSK9/LDLR complexes / PCA signal (in words): inhibit the formation of PCSK9/LDLR complexes
